Experimental findings from doi:10.1101/2025.09.09.671438 are described below.

By UniProt entry, the sequences of proteins in these tests, tags left out.
UniProt Q3UHK6: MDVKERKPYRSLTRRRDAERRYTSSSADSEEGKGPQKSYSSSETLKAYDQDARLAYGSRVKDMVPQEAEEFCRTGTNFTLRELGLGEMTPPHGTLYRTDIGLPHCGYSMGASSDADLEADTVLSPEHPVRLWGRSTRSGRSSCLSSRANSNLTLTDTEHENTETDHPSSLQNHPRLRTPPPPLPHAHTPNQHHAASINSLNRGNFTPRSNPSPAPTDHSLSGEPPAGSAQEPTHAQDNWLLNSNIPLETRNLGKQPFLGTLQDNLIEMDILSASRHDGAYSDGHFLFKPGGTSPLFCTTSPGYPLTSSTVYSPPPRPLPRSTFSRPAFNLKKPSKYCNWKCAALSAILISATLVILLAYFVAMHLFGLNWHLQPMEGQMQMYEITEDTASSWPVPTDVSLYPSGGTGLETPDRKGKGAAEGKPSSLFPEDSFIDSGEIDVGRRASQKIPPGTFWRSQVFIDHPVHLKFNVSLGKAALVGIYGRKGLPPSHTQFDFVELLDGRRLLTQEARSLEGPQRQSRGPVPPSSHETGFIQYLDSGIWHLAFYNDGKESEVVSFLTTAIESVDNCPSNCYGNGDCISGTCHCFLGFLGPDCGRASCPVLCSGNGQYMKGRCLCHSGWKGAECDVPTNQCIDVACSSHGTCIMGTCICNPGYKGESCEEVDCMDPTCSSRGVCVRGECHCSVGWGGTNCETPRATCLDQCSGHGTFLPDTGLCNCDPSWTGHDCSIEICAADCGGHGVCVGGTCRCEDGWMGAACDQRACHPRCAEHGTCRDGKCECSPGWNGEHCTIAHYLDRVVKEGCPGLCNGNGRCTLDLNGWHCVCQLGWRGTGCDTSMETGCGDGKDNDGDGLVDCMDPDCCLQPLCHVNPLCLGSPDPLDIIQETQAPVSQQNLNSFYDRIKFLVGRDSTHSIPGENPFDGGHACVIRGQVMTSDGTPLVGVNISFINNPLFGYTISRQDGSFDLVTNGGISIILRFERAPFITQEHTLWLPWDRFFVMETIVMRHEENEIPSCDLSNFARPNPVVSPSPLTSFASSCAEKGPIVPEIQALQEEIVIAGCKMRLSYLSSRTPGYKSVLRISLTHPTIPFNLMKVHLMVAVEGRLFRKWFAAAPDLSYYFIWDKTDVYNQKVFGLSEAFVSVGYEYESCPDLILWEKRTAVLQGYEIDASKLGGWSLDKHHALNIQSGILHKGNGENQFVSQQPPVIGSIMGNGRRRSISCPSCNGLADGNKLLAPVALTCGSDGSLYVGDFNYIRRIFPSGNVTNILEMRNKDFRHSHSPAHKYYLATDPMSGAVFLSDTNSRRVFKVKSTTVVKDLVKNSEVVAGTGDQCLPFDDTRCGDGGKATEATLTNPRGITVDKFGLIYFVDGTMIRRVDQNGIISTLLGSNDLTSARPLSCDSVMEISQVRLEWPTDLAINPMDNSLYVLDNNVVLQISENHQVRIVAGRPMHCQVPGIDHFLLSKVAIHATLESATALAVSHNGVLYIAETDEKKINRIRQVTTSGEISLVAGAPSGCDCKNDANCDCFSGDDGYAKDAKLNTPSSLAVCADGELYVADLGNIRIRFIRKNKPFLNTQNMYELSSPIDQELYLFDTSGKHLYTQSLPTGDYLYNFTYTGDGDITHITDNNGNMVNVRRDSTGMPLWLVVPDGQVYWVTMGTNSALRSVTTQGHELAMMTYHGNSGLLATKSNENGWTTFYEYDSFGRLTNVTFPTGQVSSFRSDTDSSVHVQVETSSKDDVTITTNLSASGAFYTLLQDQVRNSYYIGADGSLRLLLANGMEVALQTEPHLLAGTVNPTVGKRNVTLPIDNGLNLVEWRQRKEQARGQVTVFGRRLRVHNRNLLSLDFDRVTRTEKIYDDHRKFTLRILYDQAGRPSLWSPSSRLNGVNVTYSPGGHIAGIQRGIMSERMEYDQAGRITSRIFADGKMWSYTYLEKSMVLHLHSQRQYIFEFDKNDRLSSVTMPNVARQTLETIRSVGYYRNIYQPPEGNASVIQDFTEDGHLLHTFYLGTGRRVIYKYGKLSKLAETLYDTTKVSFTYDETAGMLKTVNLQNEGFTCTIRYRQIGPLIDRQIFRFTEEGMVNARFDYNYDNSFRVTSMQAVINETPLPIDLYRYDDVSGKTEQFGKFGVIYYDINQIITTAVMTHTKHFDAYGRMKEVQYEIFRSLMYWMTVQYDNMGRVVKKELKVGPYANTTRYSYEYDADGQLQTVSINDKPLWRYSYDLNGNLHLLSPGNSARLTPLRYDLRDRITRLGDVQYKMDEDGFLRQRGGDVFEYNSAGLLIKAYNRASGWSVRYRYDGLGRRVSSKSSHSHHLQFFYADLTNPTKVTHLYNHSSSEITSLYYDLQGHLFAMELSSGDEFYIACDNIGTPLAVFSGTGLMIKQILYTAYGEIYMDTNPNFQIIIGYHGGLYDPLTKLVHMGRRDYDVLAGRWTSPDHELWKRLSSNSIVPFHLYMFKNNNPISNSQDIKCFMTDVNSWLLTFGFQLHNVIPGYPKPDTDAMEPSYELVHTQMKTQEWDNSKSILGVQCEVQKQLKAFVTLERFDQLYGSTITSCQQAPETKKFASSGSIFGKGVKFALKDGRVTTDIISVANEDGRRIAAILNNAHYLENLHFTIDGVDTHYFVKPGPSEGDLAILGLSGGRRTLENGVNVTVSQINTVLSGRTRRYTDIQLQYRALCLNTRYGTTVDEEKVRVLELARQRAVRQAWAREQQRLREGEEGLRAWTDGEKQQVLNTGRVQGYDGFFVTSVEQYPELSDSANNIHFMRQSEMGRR

The test addresses mouse Ten4 full length, wild type, isoform A1B1, on cells (mouse) (UniProt Q3UHK6). Put plainly: cell-cell aggregation assay.

No constants are given. Whether binding was seen depends on the method and setting. Some binding calls cover weakened binding; strength is not graded here.

Turning to “mouse Ten4 full length, wild type, isoform A1B1, on cells (from UniProt Q3UHK6 1-2771) (receptor)”, the binding result is “binds”.
